Experimental data: doi:10.1101/2020.09.17.301283
No constants are given. Whether binding was seen depends on the method and setting. Binding seen in cells or lysates may run through a third protein. Some results given as binding are weak or reduced against the parent protein; the word gives no strength.

Protein sequences, listed by entry. Tags and fused reporters are not part of them.
UniProt P18848: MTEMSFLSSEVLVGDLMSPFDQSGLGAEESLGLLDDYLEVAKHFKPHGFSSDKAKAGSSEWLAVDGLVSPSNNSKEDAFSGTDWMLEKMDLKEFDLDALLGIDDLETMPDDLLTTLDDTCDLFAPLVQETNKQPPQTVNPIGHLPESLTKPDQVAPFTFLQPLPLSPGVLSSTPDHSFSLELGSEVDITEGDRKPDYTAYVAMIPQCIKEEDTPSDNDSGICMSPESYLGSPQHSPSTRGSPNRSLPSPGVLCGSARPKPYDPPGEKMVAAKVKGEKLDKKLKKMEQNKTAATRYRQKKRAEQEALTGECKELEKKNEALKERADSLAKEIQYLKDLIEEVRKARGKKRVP

Target: ATF4 (human (endogenous in 22rv1)) (UniProt P18848)
Experiment: proximity ligation

binding: binds
B1: Schlafen family member 5 (SLFN5) (protein, UniProt Q08AF3 1-891)
chain: MSLRIDVDTNFPECVVDAGKVTLGTQQRQEMDPRLREKQNEIILRAVCALLNSGGGIIKAEIENKGYNYERHGVGLDVPPIFRSHLDKMQKENHFLIFVKSWNTEAGVPLATLCSNLYHRERTSTDVMDSQEALAFLKCRTQTPTNINVSNSLGPQAAQGSVQYEGNINVSAAALFDRKRLQYLEKLNLPESTHVEFVMFSTDVSHCVKDRLPKCVSAFANTEGGYVFFGVHDETCQVIGCEKEKIDLTSLRASIDGCIKKLPVHHFCTQRPEIKYVLNFLEVHDKGALRGYVCAIKVEKFCCAVFAKVPSSWQVKDNRVRQLPTREWTAWMMEADPDLSRCPEMVLQLSLSSATPRSKPVCIHKNSECLKEQQKRYFPVFSDRVVYTPESLYKELFSQHKGLRDLINTEMRPFSQGILIFSQSWAVDLGLQEKQGVICDALLISQNNTPILYTIFSKWDAGCKGYSMIVAYSLKQKLVNKGGYTGRLCITPLVCVLNSDRKAQSVYSSYLQIYPESYNFMTPQHMEALLQSLVIVLLGFKSFLSEELGSEVLNLLTNKQYELLSKNLRKTRELFVHGLPGSGKTILALRIMEKIRNVFHCEPANILYICENQPLKKLVSFSKKNICQPVTRKTFMKNNFEHIQHIIIDDAQNFRTEDGDWYGKAKFITQTARDGPGVLWIFLDYFQTYHLSCSGLPPPSDQYPREEINRVVRNAGPIANYLQQVMQEARQNPPPNLPPGSLVMLYEPKWAQGVPGNLEIIEDLNLEEILIYVANKCRFLLRNGYSPKDIAVLFTKASEVEKYKDRLLTAMRKRKLSQLHEESDLLLQIGDASDVLTDHIVLDSVCRFSGLERNIVFGINPGVAPPAGAYNLLLCLASRAKRHLYILKASV
